Here are results for 1 molecule from US20150266969A1.

The target of this assay is pDisplay-ECD1 on HEK293 cells (UniProt P09619). Put plainly: flow cytometry on HEK293 cells (FIG. 24: PEP2-2-1).

Results are given in words; binding and its absence hold for the method and conditions named. Some entries that bind do so weakly or less than the wild type.

B1: PEP2-2-1 (format not stated) (VHH)
VHH: EVQLLESGGGLVQPGGSLRLSCAASGFTFRNHDMGWVRQAPGKGLEWVSAISGSGGSTYYANSVKGRFTISRDNSKNTLYLQMNSLRAEDTAVYYCAEPKPMDTEFDYRSPGTLVTVSS
For B1, the binding entry is listed as “binds”.
